The text below walks through data of paper PMC12177876, “Nanoflow Size Exclusion Chromatography–Native Mass Spectrometry of Intact Proteoforms and Protein Complexes” (Analytical Chemistry, 2025).

The chains behind the UniProt entries cited, without tags or fusion partners.
UniProt P00924: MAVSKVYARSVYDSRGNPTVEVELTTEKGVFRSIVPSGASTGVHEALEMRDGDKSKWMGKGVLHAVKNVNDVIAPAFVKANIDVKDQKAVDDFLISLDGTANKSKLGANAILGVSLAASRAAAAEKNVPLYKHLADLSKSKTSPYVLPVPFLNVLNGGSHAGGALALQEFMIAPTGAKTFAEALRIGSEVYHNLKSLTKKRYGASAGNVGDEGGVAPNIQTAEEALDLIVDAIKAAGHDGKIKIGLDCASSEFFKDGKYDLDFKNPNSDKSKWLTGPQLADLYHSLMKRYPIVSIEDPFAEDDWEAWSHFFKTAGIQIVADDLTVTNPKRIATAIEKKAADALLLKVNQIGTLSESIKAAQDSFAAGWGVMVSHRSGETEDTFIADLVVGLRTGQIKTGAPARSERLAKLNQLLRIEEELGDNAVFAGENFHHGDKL

The target in the assay is enolase (UniProt P00924). Briefly: SEC + native MS; nanoflow SEC-nMS of reference proteins: 50 nL of 1 mg mL^-1 protein injected, 200 um ID capillary SEC column, 0.5 uL min^-1, eluted with 200 mM AmAc; isCID varies by protein; both purified.

These are yes or no findings as the source states them, for the method shown. Some results given as binding are weak or reduced against the parent protein; the word gives no strength.

Regarding “enolase (from UniProt P00924 1-437) (enzyme)”, the binding entry is on record as “binds”.
